# Data as given in the supplement of paper PMC11438910.
# This is one part of the list. Most of these values are background signal.
# Tests used:
# Experiment in all cases: fluorescence intensity of antibody binding to polysaccharide-coupled beads; higher = stronger binding
# [1] = target: pneumococcal polysaccharide Pn19B
# [2] = target: pneumococcal polysaccharide Pn19C
# [3] = target: pneumococcal polysaccharide Pn19F
# [4] = target: pneumococcal polysaccharide Pn2
# [5] = target: pneumococcal polysaccharide Pn20A
# [6] = target: pneumococcal polysaccharide Pn20B
# [7] = target: pneumococcal polysaccharide Pn21
# [8] = target: pneumococcal polysaccharide Pn22A
# [9] = target: pneumococcal polysaccharide Pn22F
# [10] = target: pneumococcal polysaccharide Pn23A
# [11] = target: pneumococcal polysaccharide Pn23B
# [12] = target: pneumococcal polysaccharide Pn23F
# [13] = antibody concentration 0.1 ng/mL
# [14] = antibody concentration 0.534724 ng/mL
# [15] = antibody concentration 2.8593 ng/mL
# [16] = antibody concentration 15.2894 ng/mL
# [17] = antibody concentration 81.7561 ng/mL
# [18] = antibody concentration 437.17 ng/mL
# [19] = antibody concentration 2337.65 ng/mL
# [20] = antibody concentration 12500 ng/mL
binder,measurement,setting,value
3S41.3 (protein) chain 1: EVQLVESGGGLVQPGGSLRLSCATSGFTFSNYWMYWFRQAPGKGLEWVSTISGSSSNTYYPDSVKGRFTISRDNAKNTLYLQINSLRAEDTAVYYCARRHDHSSGWAFDYWGQGVLVTVSS chain 2: EIVMTQSPATLSLSPGERATLSCRASQSVGSNLAWYQQKPGQAPKLLIYDASSRATGIPDRFSGSGSGTDFTLTVSSLEPEDVGVYYCQQYNNWKTFGQGTKVEIK,fluorescence intensity,[1]; [13],28 MFI
same,fluorescence intensity,[1]; [14],28.5 MFI
same,fluorescence intensity,[1]; [15],28.2 MFI
same,fluorescence intensity,[1]; [16],28 MFI
same,fluorescence intensity,[1]; [17],30 MFI
same,fluorescence intensity,[1]; [18],56.8 MFI
same,fluorescence intensity,[1]; [19],426 MFI
same,fluorescence intensity,[1]; [20],1530 MFI
same,fluorescence intensity,[2]; [13],26 MFI
same,fluorescence intensity,[2]; [14],23.5 MFI
same,fluorescence intensity,[2]; [15],22.5 MFI
same,fluorescence intensity,[2]; [16],24.5 MFI
same,fluorescence intensity,[2]; [17],24 MFI
same,fluorescence intensity,[2]; [18],38.5 MFI
same,fluorescence intensity,[2]; [19],264 MFI
same,fluorescence intensity,[2]; [20],957 MFI
same,fluorescence intensity,[3]; [13],24.5 MFI
same,fluorescence intensity,[3]; [14],25 MFI
same,fluorescence intensity,[3]; [15],25 MFI
same,fluorescence intensity,[3]; [16],24.5 MFI
same,fluorescence intensity,[3]; [17],29 MFI
same,fluorescence intensity,[3]; [18],37.2 MFI
same,fluorescence intensity,[3]; [19],54 MFI
same,fluorescence intensity,[3]; [20],106 MFI
same,fluorescence intensity,[4]; [13],19 MFI
same,fluorescence intensity,[4]; [14],18 MFI
same,fluorescence intensity,[4]; [15],20 MFI
same,fluorescence intensity,[4]; [16],20.5 MFI
same,fluorescence intensity,[4]; [17],21.5 MFI
same,fluorescence intensity,[4]; [18],24.2 MFI
same,fluorescence intensity,[4]; [19],29.2 MFI
same,fluorescence intensity,[4]; [20],54.2 MFI
same,fluorescence intensity,[5]; [13],23 MFI
same,fluorescence intensity,[5]; [14],20.5 MFI
same,fluorescence intensity,[5]; [15],21.5 MFI
same,fluorescence intensity,[5]; [16],22 MFI
same,fluorescence intensity,[5]; [17],22.5 MFI
same,fluorescence intensity,[5]; [18],39.5 MFI
same,fluorescence intensity,[5]; [19],274 MFI
same,fluorescence intensity,[5]; [20],986 MFI
same,fluorescence intensity,[6]; [13],22 MFI
same,fluorescence intensity,[6]; [14],23 MFI
same,fluorescence intensity,[6]; [15],22 MFI
same,fluorescence intensity,[6]; [16],23 MFI
same,fluorescence intensity,[6]; [17],21.5 MFI
same,fluorescence intensity,[6]; [18],28 MFI
same,fluorescence intensity,[6]; [19],58 MFI
same,fluorescence intensity,[6]; [20],179 MFI
same,fluorescence intensity,[7]; [13],18.5 MFI
same,fluorescence intensity,[7]; [14],19.5 MFI
same,fluorescence intensity,[7]; [15],18 MFI
same,fluorescence intensity,[7]; [16],18 MFI
same,fluorescence intensity,[7]; [17],19 MFI
same,fluorescence intensity,[7]; [18],22.5 MFI
same,fluorescence intensity,[7]; [19],37.5 MFI
same,fluorescence intensity,[7]; [20],69.5 MFI
same,fluorescence intensity,[8]; [13],19.8 MFI
same,fluorescence intensity,[8]; [14],21.5 MFI
same,fluorescence intensity,[8]; [15],21.5 MFI
same,fluorescence intensity,[8]; [16],19.5 MFI
same,fluorescence intensity,[8]; [17],22.2 MFI
same,fluorescence intensity,[8]; [18],28 MFI
same,fluorescence intensity,[8]; [19],104 MFI
same,fluorescence intensity,[8]; [20],395 MFI
same,fluorescence intensity,[9]; [13],28 MFI
same,fluorescence intensity,[9]; [14],29.8 MFI
same,fluorescence intensity,[9]; [15],27.5 MFI
same,fluorescence intensity,[9]; [16],31.2 MFI
same,fluorescence intensity,[9]; [17],32 MFI
same,fluorescence intensity,[9]; [18],37.2 MFI
same,fluorescence intensity,[9]; [19],70.2 MFI
same,fluorescence intensity,[9]; [20],164 MFI
same,fluorescence intensity,[10]; [13],21.5 MFI
same,fluorescence intensity,[10]; [14],26.5 MFI
same,fluorescence intensity,[10]; [15],26 MFI
same,fluorescence intensity,[10]; [16],24 MFI
same,fluorescence intensity,[10]; [17],36 MFI
same,fluorescence intensity,[10]; [18],56 MFI
same,fluorescence intensity,[10]; [19],110 MFI
same,fluorescence intensity,[10]; [20],372 MFI
same,fluorescence intensity,[11]; [13],30.5 MFI
same,fluorescence intensity,[11]; [14],29.8 MFI
same,fluorescence intensity,[11]; [15],27 MFI
same,fluorescence intensity,[11]; [16],32 MFI
same,fluorescence intensity,[11]; [17],32 MFI
same,fluorescence intensity,[11]; [18],30.8 MFI
same,fluorescence intensity,[11]; [19],35.8 MFI
same,fluorescence intensity,[11]; [20],75.5 MFI
same,fluorescence intensity,[12]; [13],18.2 MFI
same,fluorescence intensity,[12]; [14],18.2 MFI

# Reformatted with tabs: part of the list above.
binder	measurement	setting	value
3S41.3 (protein) chain 1: EVQLVESGGGLVQPGGSLRLSCATSGFTFSNYWMYWFRQAPGKGLEWVSTISGSSSNTYYPDSVKGRFTISRDNAKNTLYLQINSLRAEDTAVYYCARRHDHSSGWAFDYWGQGVLVTVSS chain 2: EIVMTQSPATLSLSPGERATLSCRASQSVGSNLAWYQQKPGQAPKLLIYDASSRATGIPDRFSGSGSGTDFTLTVSSLEPEDVGVYYCQQYNNWKTFGQGTKVEIK	fluorescence intensity	[9]; [13]	28 MFI
same	fluorescence intensity	[9]; [14]	29.8 MFI
same	fluorescence intensity	[9]; [15]	27.5 MFI
same	fluorescence intensity	[9]; [16]	31.2 MFI
same	fluorescence intensity	[9]; [17]	32 MFI
same	fluorescence intensity	[9]; [18]	37.2 MFI
same	fluorescence intensity	[9]; [19]	70.2 MFI
same	fluorescence intensity	[9]; [20]	164 MFI
same	fluorescence intensity	[10]; [13]	21.5 MFI
same	fluorescence intensity	[10]; [14]	26.5 MFI
same	fluorescence intensity	[10]; [15]	26 MFI
same	fluorescence intensity	[10]; [16]	24 MFI
same	fluorescence intensity	[10]; [17]	36 MFI
same	fluorescence intensity	[10]; [18]	56 MFI
same	fluorescence intensity	[10]; [19]	110 MFI
same	fluorescence intensity	[10]; [20]	372 MFI
same	fluorescence intensity	[11]; [13]	30.5 MFI
same	fluorescence intensity	[11]; [14]	29.8 MFI
same	fluorescence intensity	[11]; [15]	27 MFI
same	fluorescence intensity	[11]; [16]	32 MFI
same	fluorescence intensity	[11]; [17]	32 MFI
same	fluorescence intensity	[11]; [18]	30.8 MFI
same	fluorescence intensity	[11]; [19]	35.8 MFI
same	fluorescence intensity	[11]; [20]	75.5 MFI
